Measurements from paper PMC3983056 (PLoS Pathogens, 2014).

Tested on: total class I and II HDAC enzyme activity in resting CD4 T cells
Settings: pulse RMD 4 hours, VOR 24 hours, PNB 24 hours, 6 to 48 hours
Method: Resting CD4 T cells obtained from HIV-infected patients on suppressive cART were incubated with serial dilutions of HDACi in 96-well plates at 10,000 cells/well for indicated time and then lysed by repeated freezing and thawing. Total cellular HDAC activity was measured using the HDAC-Glo I/II assay kit (Promega) according to the manufacturer's protocol.

O=C(CCCCCCC(=O)Nc1ccccc1)NO [VOR, suberoylanilide hydroxamic acid]
persistence of inhibition of cell-associated HDAC activity: transient and decreased after 24 hours of incubation
